Measurements reported in PubChem BioAssay AID493014 (National Center for Advancing Translational Sciences (NCATS), 2011).
About 170 (0.05%) of roughly 340,000 compounds were called active. The inconclusive results got no clear call from the source; some entries with a clear call stand among them for comparison. Calls follow the shape of the dose curve; as a rule, active = well fitted inhibition curve with a large enough effect in the signal ratio, with a control signal flat (not every such curve was filed as active); inconclusive = small, poorly fitted or top-dose-only effect, or effect the other way, or a change in a side signal; inactive = flat fitted curve, though single readings scatter; the % refers to the signal ratio. Potencies beside an inconclusive call are fits to weak or partial responses and may not hold up.

test: qHTS Assay to Find Inhibitors of Chronic Active B-Cell Receptor Signaling; details: ABC-DLBCL IkBa-CBG/CBR reporter, luminescence ratio (green luciferase fused to IkBa over red control in TMD8 lymphoma cells), 4 h; activity change, negative = inhibition: at 46.1 µM (top of the series);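 as to activity change, negative = inhibition: plate controls were basal doxycycline-induced cells for no effect and cells given 10 µM MG132 for full effect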
Method in brief: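 Cell line TMD8 (human ABC DLBCL), stably expressing tet-inducible CBG68-IkBa fusion and CBR; IMDM/0.5% FBS; cpd up to 46 uM; dox induction, 4 h, 37C/5% CO2; dual luminescence; green/red ratio; MG132 control.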
Potency is read from the fitted curve at half-maximal effect.

Row | SMILES | activity change, negative = inhibition | Potency
1 | CCN1C(=O)[C@H]2[C@@H](c3ccc(-c4ccc(OC)cc4)cc3)N[C@@](CC(C)C)(C(=O)OC)[C@H]2C1=O | inactive | –
2 | Cc1ncoc1C(=O)NC1CCCc2c1cnn2-c1ccc(C(C)(C)C)cc1 (stereo unspecified) | – | inconclusive: 22.4 µM [falling, single point]
3 | COc1ccc(-c2noc(CCC(=O)N3CCN(c4ccccc4Cl)CC3)n2)cc1 | inconclusive: -8.56% | –
4 | CCOc1cc(C(=S)N2CCOCC2)ccc1OC | inactive | –
5 | COc1ccccc1NC(=O)Nc1nnc(CC(=O)Nc2ccccc2)s1 | inconclusive: -5.26% | –
6 | CCOC(=O)[C@H]1[C@H]2COc3ccc(OC)cc3[C@@H]2N2C(=O)CN(CCc3c[nH]c4ccccc34)C(=O)[C@@]12C | – | inconclusive: 16.4 µM [falling, partial curve]
7 | Cc1ccc(C(=O)N2CCN3C(=O)c4ccccc4C23c2ccccc2)cc1 (stereo unspecified) | – | inconclusive: 22.4 µM [falling, single point]
8 | COc1ccc(C)cc1NC(=S)N1CC(C)OC(C)C1 (stereo unspecified) | inconclusive: 1.21% | –
9 | COc1ccccc1OCC(=O)N(Cc1nnc(-c2ccccc2Cl)o1)C1CC1 | – | inconclusive: 29.1 µM [falling, single point]
10 | Cc1cc(NS(=O)(=O)c2ccc(NC(=O)/C=C/c3ccc(C)o3)cc2)nc(C)n1 | – | inconclusive: 22.4 µM [rising, partial curve, poor fit]
11 | Cc1ccc(S(=O)(=O)Nc2ccc3c(c2)n(C)c(=O)n3C)c(C)c1 | inconclusive: -2.89% | –
12 | O=C(NC(=S)Nn1cnnc1)c1cccc(Br)c1 | inconclusive: 0.168% | –
13 | O=C(CNC(=O)COc1ccccc1)NCCc1ccccn1 | – | inconclusive: 3.16 µM [falling, single point]
14 | COc1ccc(CCNC(=O)CSc2nnnn2C)cc1OC | inconclusive: 9.38% | –
15 | CCOC(=O)c1[nH]c2ccc(Cl)cc2c1NC(=O)/C=C/c1ccc2c(c1)OCO2 | inactive | –
16 | O=C(Nc1nc2ccccc2c(=O)s1)c1ccco1 | inconclusive: 4.89% | –
17 | CN(CC(=O)Nc1ccncc1)S(=O)(=O)c1ccccc1 | inconclusive: -2.21% | –
18 | CC(=O)C1=C(O)C(=O)N(c2ccc(C)cc2)C1c1ccccn1 (stereo unspecified) | inconclusive: 26.4% | –
19 | O=C(OCc1cc(=O)n2ccsc2n1)c1ccc(O)cc1O | inconclusive: -15.3% | –
20 | Cc1occc1C(=O)N/N=C/c1ccc(-c2ccccc2)cc1 | – | inconclusive: 17.8 µM [falling, partial curve, poor fit]
21 | Cc1nc(-c2nc(-c3c(C(=O)NNC(=O)c4ccc(Cl)cc4)noc3C)cs2)cs1 | inactive | –
22 | Cn1c(=O)c(C(=O)NNC(=O)c2ccccc2F)c(O)c2ccccc21 | – | inconclusive: 2.82 µM [falling, full curve, poor fit]
23 | CN1CCN(C(=S)NC(=O)/C=C/c2cccs2)CC1 | inconclusive: 17.5% | –
24 | COc1cccc(-c2cc3nc(-c4ccccc4)cc(N4CCC5(CC4)OCCO5)n3n2)c1 | inactive | –
25 | Cc1[nH]c2c(C)cccc2c1CCNC(=O)c1ccc2c(c1[N+](=O)[O-])C(=O)c1ccccc1C2=O | – | inconclusive: 0.891 µM [rising, full curve]
26 | Cc1onc(-c2ccccc2Cl)c1C(=O)NNC(=O)c1ccc(F)cc1 | inactive | –

Sorted by length of the SMILES (smallest number first): some entries from above.
Row | SMILES | activity change, negative = inhibition | Potency
4 | CCOc1cc(C(=S)N2CCOCC2)ccc1OC | inactive | –
14 | COc1ccc(CCNC(=O)CSc2nnnn2C)cc1OC | inconclusive: 9.38% | –
13 | O=C(CNC(=O)COc1ccccc1)NCCc1ccccn1 | – | inconclusive: 3.16 µM [falling, single point]
17 | CN(CC(=O)Nc1ccncc1)S(=O)(=O)c1ccccc1 | inconclusive: -2.21% | –
20 | Cc1occc1C(=O)N/N=C/c1ccc(-c2ccccc2)cc1 | – | inconclusive: 17.8 µM [falling, partial curve, poor fit]
5 | COc1ccccc1NC(=O)Nc1nnc(CC(=O)Nc2ccccc2)s1 | inconclusive: -5.26% | –
22 | Cn1c(=O)c(C(=O)NNC(=O)c2ccccc2F)c(O)c2ccccc21 | – | inconclusive: 2.82 µM [falling, full curve, poor fit]
2 | Cc1ncoc1C(=O)NC1CCCc2c1cnn2-c1ccc(C(C)(C)C)cc1 (stereo unspecified) | – | inconclusive: 22.4 µM [falling, single point]
11 | Cc1ccc(S(=O)(=O)Nc2ccc3c(c2)n(C)c(=O)n3C)c(C)c1 | inconclusive: -2.89% | –
3 | COc1ccc(-c2noc(CCC(=O)N3CCN(c4ccccc4Cl)CC3)n2)cc1 | inconclusive: -8.56% | –
15 | CCOC(=O)c1[nH]c2ccc(Cl)cc2c1NC(=O)/C=C/c1ccc2c(c1)OCO2 | inactive | –
10 | Cc1cc(NS(=O)(=O)c2ccc(NC(=O)/C=C/c3ccc(C)o3)cc2)nc(C)n1 | – | inconclusive: 22.4 µM [rising, partial curve, poor fit]
25 | Cc1[nH]c2c(C)cccc2c1CCNC(=O)c1ccc2c(c1[N+](=O)[O-])C(=O)c1ccccc1C2=O | – | inconclusive: 0.891 µM [rising, full curve]
1 | CCN1C(=O)[C@H]2[C@@H](c3ccc(-c4ccc(OC)cc4)cc3)N[C@@](CC(C)C)(C(=O)OC)[C@H]2C1=O | inactive | –
6 | CCOC(=O)[C@H]1[C@H]2COc3ccc(OC)cc3[C@@H]2N2C(=O)CN(CCc3c[nH]c4ccccc34)C(=O)[C@@]12C | – | inconclusive: 16.4 µM [falling, partial curve]

The results go on.

Row | SMILES | activity change, negative = inhibition | Potency
27 | Cc1ccc2c(c1)N(CC(=O)N1CCC(C)CC1)C(=O)c1cccnc1O2 | inconclusive: 9% | –
28 | CC(C)(C)OC(=O)N1CCCC(C(=O)Nc2ccc(C(=O)N3CCCCC3)cc2)C1 (stereo unspecified) | inactive | –
29 | C=CC[C@H](CC(=O)N(CCO)Cc1ccccc1)C(=O)N[C@H](COC(=O)[C@@H](CC=C)Cc1ccc(F)cc1)Cc1c[nH]c2ccccc12 | inconclusive: -0.861% | –
30 | Cc1cc(C)c2c(CN3CCCCC3)cc(=O)oc2c1 | inactive | –
31 | COc1cccc(NC(=O)NNC(=O)CCc2ccc(O)c(O)c2)c1 | inactive | –
32 | C=C(C)CSc1nc2nc(C)c(Br)cc2[nH]1 | – | inconclusive: 29.1 µM [falling, single point]
33 | Cc1sc2nc(COC(=O)c3cccc(OC(F)F)c3)[nH]c(=O)c2c1C | inactive | –
34 | COC(CNC(=O)c1ccc2c(c1)ncn2-c1cccc(C)c1)OC | inconclusive: -0.778% | –
35 | O=C1NC2(C=Cc3c(ccc4ccccc34)O2)Oc2ccccc21 (stereo unspecified) | inconclusive: -15.7% | –
36 | CCn1c2ccccc2c2cc(NC(=O)c3cc(OC)cc(OC)c3)ccc21 | – | inconclusive: 6.51 µM [falling, partial curve]
37 | Cc1ccc(NC(=S)Nc2ccc(F)cc2)c(C)c1 | inactive | –
38 | Cc1nn(Cc2ccc(C(=O)NN)o2)c(C)c1Cl | – | inconclusive: 22.4 µM [falling, single point]
39 | O=C(NCCC(=O)N1CCN(c2cccc(Cl)c2)CC1)c1ccc(Br)cc1 | inactive | –
40 | CC(c1ccccc1)N1CCC(CNC(=S)Nc2cccc(Cl)c2)C1 (stereo unspecified) | inconclusive: -14.3% | –
41 | O=C(CSc1nnc(Cc2ccccc2)n1Cc1ccco1)NC1CCCC1 | inconclusive: 5.89% | –
42 | Cc1cc(Cl)ccc1NC(=S)Nc1ccccn1 | inconclusive: 5.91% | –
43 | O=C(N/N=C/C=C/c1ccccc1)c1n[nH]c2c1CCC2 | inconclusive: -2.64% | –
44 | O=C(O)c1cccc(Cn2c(Cl)c(/C=N/NC(=O)c3cccc(O)c3)sc2=O)c1 | – | inconclusive: 3.55 µM [falling, partial curve, poor fit]
45 | C=CCOc1ccccc1CN1CCC(Oc2ccc(C(=O)N3CCCCC3)cc2)CC1 | inactive | –
46 | CSc1nc2ccc(S(=O)(=O)N3CCCCC3)cc2s1 | inconclusive: 16.1% | –
47 | COc1cccc(OCc2cc(C(=O)N3CCN(c4ccccc4O)CC3)no2)c1 | inconclusive: -0.0335% | –
48 | Clc1ccc(-c2nnc3sc(-c4ccc(Br)o4)nn23)cc1 | inconclusive: -7.85% | –
49 | CCc1ccc(OCCCC(=O)Nc2ccc(S(N)(=O)=O)cc2)cc1 | inconclusive: 0.443% | –
50 | CC(=O)NS(=O)(=O)c1ccc(N=c2ssc3c2-c2cc(C)ccc2NC3(C)C)cc1 | inconclusive: 15.6% | –
51 | O=C(/C=C/c1cccs1)c1ccc(NC(=O)c2cccc(Br)c2)cc1 | – | inconclusive: 8.2 µM [falling, partial curve, poor fit]
